According to ChEMBL document CHEMBL4118181, “Investigations on small molecule inhibitors targeting the histone H3K4 tri-methyllysine binding PHD-finger of JmjC histone demethylases” (Bioorg Med Chem, 2018):

Target: T1, Lysine-specific demethylase 7A (Homo sapiens) (UniProt Q6ZMT4)
T1 sequence (whole entry): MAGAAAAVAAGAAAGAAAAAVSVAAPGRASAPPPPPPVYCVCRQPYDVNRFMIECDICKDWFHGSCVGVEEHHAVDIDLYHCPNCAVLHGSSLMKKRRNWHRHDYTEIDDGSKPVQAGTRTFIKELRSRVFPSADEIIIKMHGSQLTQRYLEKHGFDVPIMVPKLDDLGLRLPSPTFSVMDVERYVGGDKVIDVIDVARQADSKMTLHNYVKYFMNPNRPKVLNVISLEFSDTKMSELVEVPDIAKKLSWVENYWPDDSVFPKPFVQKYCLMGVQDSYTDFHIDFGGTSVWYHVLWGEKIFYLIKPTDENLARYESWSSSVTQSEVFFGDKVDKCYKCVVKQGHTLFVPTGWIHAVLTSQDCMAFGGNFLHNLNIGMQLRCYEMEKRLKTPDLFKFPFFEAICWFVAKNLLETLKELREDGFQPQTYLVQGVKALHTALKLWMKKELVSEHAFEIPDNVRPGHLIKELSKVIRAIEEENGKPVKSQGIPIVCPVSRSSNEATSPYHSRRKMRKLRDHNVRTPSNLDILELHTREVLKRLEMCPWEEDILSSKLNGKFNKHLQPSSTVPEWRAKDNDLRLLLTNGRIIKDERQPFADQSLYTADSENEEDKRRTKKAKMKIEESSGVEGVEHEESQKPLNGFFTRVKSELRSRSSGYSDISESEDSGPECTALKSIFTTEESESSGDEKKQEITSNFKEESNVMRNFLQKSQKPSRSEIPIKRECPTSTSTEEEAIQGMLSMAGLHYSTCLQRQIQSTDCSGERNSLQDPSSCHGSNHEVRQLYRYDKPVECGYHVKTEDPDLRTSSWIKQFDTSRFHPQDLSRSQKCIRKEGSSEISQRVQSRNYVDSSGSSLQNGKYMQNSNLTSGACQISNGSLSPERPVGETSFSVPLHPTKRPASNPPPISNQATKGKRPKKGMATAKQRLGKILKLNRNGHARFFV
Experiment: Inhibition of KDM7A (PHD-JmjC) (unknown origin) demethylation activity at 100 uM preincubated for 10 mins followed by H3(1-15)K9me2 peptide substrate addition by MALDI-TOF-MS analysis

inhibition: 83%
SMILES: CCCCc1oc2ccccc2c1C(=O)c1cc(I)c(OCCN(CC)CC)c(I)c1
